Data published in article doi:10.1101/2021.03.15.433877.
These are yes or no findings as the source states them, for the method shown. Some results given as binding are weak or reduced against the parent protein; the word gives no strength.

By UniProt entry, the sequences of proteins in these tests, tags left out.
UniProt P0DTD8, whole entry: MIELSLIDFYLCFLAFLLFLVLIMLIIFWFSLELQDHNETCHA
UniProt P49069, whole entry: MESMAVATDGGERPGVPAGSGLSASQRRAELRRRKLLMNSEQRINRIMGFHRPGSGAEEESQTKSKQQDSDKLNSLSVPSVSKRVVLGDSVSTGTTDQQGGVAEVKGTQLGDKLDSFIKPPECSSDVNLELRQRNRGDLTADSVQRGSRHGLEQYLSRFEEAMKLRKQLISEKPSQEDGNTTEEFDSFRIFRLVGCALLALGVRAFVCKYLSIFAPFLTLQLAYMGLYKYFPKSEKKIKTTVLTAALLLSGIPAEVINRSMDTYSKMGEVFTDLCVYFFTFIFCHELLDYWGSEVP

Biological target: SARS-CoV-2 ORF7B (SARS-CoV-2) (UniProt P0DTD8)
Test: two-hybrid

CAMLG (from UniProt P49069 1-296) was tested, and the binding was “binds”.
